These are yes or no findings as the source states them, for the method shown. In cells and extracts the contact can be indirect. Some results given as binding are weak or reduced against the parent protein; the word gives no strength.

Chains of the proteins cited; added tags and fusions are not shown.
UniProt P10415: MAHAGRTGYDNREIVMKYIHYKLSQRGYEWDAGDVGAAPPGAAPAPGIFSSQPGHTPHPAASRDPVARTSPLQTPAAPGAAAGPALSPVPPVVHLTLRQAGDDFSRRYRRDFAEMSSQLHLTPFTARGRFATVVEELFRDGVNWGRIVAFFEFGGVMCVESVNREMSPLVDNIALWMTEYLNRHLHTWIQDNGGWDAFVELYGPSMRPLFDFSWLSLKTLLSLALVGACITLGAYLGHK

In the experiment the target is Bcl-2 (human (endogenous in PC-3)) (UniProt P10415). Briefly: co-IP; competition in cells: synthetic BH3 peptide (50 g ml-1 as printed) electroporated into PC-3 cells; read out as the loss of Bcl-2 from the anti-Bak immunoprecipitate; only the binder purified.

For the molecule LSESLKRIGDELDSN (N-terminal acetyl (Ac); C-terminal amide (NH2)) [Peptide derived from the BH3 domain of Bax (C62->S)], the binding entry is given as “binds”.

On to VGRQLAIIGDDINRR (N-terminal acetyl (Ac); C-terminal amide (NH2)) [Peptide derived from the BH3 domain of Bak], for which the binding entry is on record as “binds”.

These data come from paper PMC2363905.
